# Data as given in the supplement of paper PMC5407854, “Inhibitor of ppGalNAc-T3-mediated O-glycosylation blocks cancer cell invasiveness and lowers FGF23 levels” (eLife, 2017).
# The full ranking holds about 1,700 compounds; the median of “T2 sensor activation Q score (MG/GFP ratio z-score vs DMSO controls)” is about 0.3, and the highest 2% start at about 1.9. This is one part of the list.
# Test system: ppGalNAc-T2 sensor
# Assay: T2 sensor activation Q score (MG/GFP ratio z-score vs DMSO controls) (SD units); higher = more sensor activation (inhibition of ppGalNAc-T2 glycosylation)
# Settings: HEK293 sensor cells; 10 µM; 6 h
# Experimental: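 Cells were treated with compound at 10 uM for 6 h, then MG/GFP ratio was read by flow cytometry (10,000 cells per well, duplicate wells). Q = (R - R_neg)/SD_neg relative to DMSO vehicle controls; the signal rises when the glycosyltransferase is inhibited.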
row,SMILES,T2 sensor activation Q score
1,NC(=O)NC(=O)c1nccnc1C(=O)O,-0.2
2,Cc1cccc(N2CCN(CC(O)COc3ccccc3Cl)CC2)c1 (configuration not stated),0.75
3,CC(C)Cc1nnc(N)s1,1.85
4,CN(C)C=Nc1ccc(Cl)c(Cl)c1,-1.85
5,CC(=O)c1c(O)c(C)c(O)c2c1OC1=CC(=O)/C(=C(/C)N)C(=O)C12C (configuration not stated),-1.2
6,Cc1cc(N(C)C)ccc1N=Nc1ccc2ncccc2c1,-0.9
7,CC(C1=C(CCN(C)C)Cc2ccccc21)c1ccccn1 (configuration not stated),-1.6
8,Cn1nc(NC(=O)C(F)(F)F)c2ncc(-c3ccc(Cl)cc3)nc21,0.5
9,COc1cc(S(N)(=O)=O)c(OC)cc1N,1.7
10,C=C(C)c1nc(Oc2ccccc2)nc(Oc2ccccc2)n1,-1.35
11,CC1(C)CC[C@]2(C(=O)n3ccnc3)CC[C@]3(C)[C@H](C(=O)C=C4[C@@]5(C)C=C(C#N)C(=O)C(C)(C)[C@@H]5CC[C@]43C)[C@@H]2C1,0.7
12,Cc1ccc(NC(=O)Nc2ccccc2C(N)=O)cc1,0.9
13,O=C1NCCc2c1[nH]c1ccccc21,-0.1
14,CC(=O)OC1CCC2(C)C(=CCC3C2CCC2(C)C3CC3OC4(CCC(C)CN4)C(C)C32)C1 (configuration not stated),1.45
15,CN1C2CCC1CC(OC(c1ccccc1)c1ccccc1)C2 (configuration not stated),0.05
16,Cc1cc(N)c2cc(NC(=O)C=Cc3ccccc3Cl)ccc2n1,1.5
17,O=c1cc/c(=N\Nc2ccccc2)c(=O)/c1=N/Nc1ccccc1,-1.7
18,N#Cc1cnn2ccn(C3OC(CO)C(O)C3O)c12 (configuration not stated),1.5
19,NC(=S)N/N=C\c1cc(-c2cccc(N)c2)ccn1,0
20,CC(=O)Nc1cc(NC(C)=O)ncn1,-0.9
21,Cc1c(C#N)c2n(c1C)CCCC(=O)N2,0.6
22,OC(COc1ccccc1)CN1CCN(c2ccccc2)CC1 (configuration not stated),0.2
23,C1=Cc2ccccc2Nc2ccccc21,-0.4
24,NNC(=O)Cc1cc(=O)[nH][nH]1,-0.7
25,CC(=O)NCC(O)c1ccc([N+](=O)[O-])cc1 (configuration not stated),0.7
26,O=c1nccc(SCc2ccc(Cl)cc2Cl)[nH]1,1.5

row,SMILES,T2 sensor activation Q score
1,Cc1cc(C)c(C#N)c(Sc2nc(C)c([N+](=O)[O-])c(C)c2C#N)n1,1.25
2,CC(=O)OC1COC(OC(C)=O)CO1 (configuration not stated),-1.35
3,Oc1ccc2ccc3[nH]cnc3c2c1,-0.55
4,COc1cccc2c1C(=O)c1c(O)c3c(c(O)c1C2=O)C[C@@](O)(C(=O)CO)C[C@@H]3O[C@H]1C[C@H](N)[C@H](O)[C@H](C)O1,-2.2
5,Cn1c(=O)c2c(nc(Oc3ccccc3)n2C)n(C)c1=O,1.85
6,NC(=Nc1nc(-c2ccccn2)cc2ccccc12)c1ccccn1,0
7,O=C(O)c1cncc(Br)c1,-1.05
8,Nc1nc(Cl)nc2c1ncn2[C@H]1C[C@H](O)[C@@H](CO)O1,-2.15
9,O=C(NCc1ccco1)Nc1cccc([N+](=O)[O-])c1,1.3
10,CCN1CCCC(Sc2nc3c([nH]2)c(=S)n(C)c(=O)n3C)C1 (configuration not stated),0.45
11,O=c1[nH]c(=S)[nH]cc1Oc1ccc(Cl)cc1Cl,1.15
12,C=CCNc1ncnc2sc(SC)nc12,-1.25
13,OC[C@H]1O[C@@H](n2cnc3c2NC=NC[C@H]3O)C[C@@H]1O,-0.15
14,O=C(O)/C=C\C(=O)Nc1nccs1,-1.05
15,Cc1cc(O)c(-c2cc(O)c(C)cc2O)cc1O,-2.95
16,CCOC(=O)c1c(C)nc(C)c(C(=O)OCC)c1-c1ccc(OC)cc1,0.35
17,CSc1ncc2ncn(C3OC(CO)C(O)C3O)c2n1 (configuration not stated),1.05
18,CC(=O)Nc1nc(C)c(CCC2OCCO2)c(=O)[nH]1,1.7
19,NC(N)=NC(N)=Nc1ccc(O)cc1,-0.35
20,CCC(CNc1cc(OC)cc2cccnc12)NC1CCCCC1 (configuration not stated),-0.95
21,CCOC(=O)CC(=O)NC(C)(C)CCCCC(C)(C)NC(=O)CC(=O)OCC,-0.4
22,Clc1ccc(Nc2nnc(-c3ccc4c(c3)OCO4)o2)cc1,-0.7
23,C(=C\c1ccncc1)/c1ccncc1,-0.8
24,Cn1c2c(c(=O)n(C)c1=O)NC1(N2)C(=O)Nc2ccccc21 (configuration not stated),0.4
25,Cc1nnc2nc(-c3ccccc3)nc(-c3ccccc3)n12,1.4
26,CC(=O)NCC1(O)CCCC(C)C1 (configuration not stated),1.25

row,SMILES,T2 sensor activation Q score
1,CSc1ccc2c(c1)C(N1CCN(C)CC1)Cc1ccccc1S2 (configuration not stated),-0.55
2,C=CCc1ccccc1OCC(=O)O,1.7
3,O/N=C(/c1ccccc1)c1ccc2c3c(cccc13)CC2,0.9
4,CCOCc1cc(=O)[nH]c(SC)n1,-0.05
5,CC(=O)n1cc(C2CC(=O)OC3=C2CC(=O)C(C)(C)C3)c2ccccc21 (configuration not stated),0.15
6,COc1c(C=O)c2c(c(OC)c1OC)-c1ccc(OC)c(=O)cc1C(NC(C)=O)CC2 (configuration not stated),0.6
7,O=c1ccnc(Nc2ccc(Cl)cc2)[nH]1,0.5
8,CCNc1nc(NC(C)C)nc(-c2ccncc2)n1,0.65
9,CN(C)Cc1cc(C(F)(F)F)ccc1C(O)(c1ccccc1)c1ccccc1,1.1
10,CCCc1cc(=O)oc2c3c(c4c(c12)OC(C)(C)C=C4)O[C@H](C)[C@@H](C)[C@@H]3O,-0.05
11,N/C(CC(=O)Nc1cc(C(F)(F)F)ccc1Cl)=N\O,-1.65
12,Cc1c(NC(=O)Nc2c(Cl)cccc2Cl)c(=O)n(-c2ccccc2)n1C,0.7
13,CCOC(=O)c1nn(-c2ccccc2)cc1O,0.9
14,Nc1nc(Cl)cc(Nc2ccccc2Cl)n1,0.6
15,CC1=NC(C)(C)CC2CCC(O)C12 (configuration not stated),-0.5
16,CCC(C)n1c(C)cc(=O)n1C(C)CC (configuration not stated),-0.1
17,O=c1nc(Oc2ccccc2)nc2ncccn12,1.9
18,c1ccn(CCc2ccncc2)c1,1.4
19,CCSc1nc(C)c(C)c(=O)[nH]1,-0.5
20,CN(C)c1ccc(/C=C/C(=O)c2cc(Cl)ccc2O)cc1,-0.3
21,NC1(N2SC(S)=C3CCCC=C32)CCCCC1,-1.7
22,Cc1cccn2c(=S)[nH]nc12,-1.35
23,COc1ccc(CC(=O)c2ccc(O)cc2O)cc1,0.35
24,O=C(O)c1ccc2c(c1Sc1ccccc1)C(=O)c1ccccc1C2=O,0.2
25,CCOC(=O)c1nc2sc3c(c2c(=O)[nH]1)CCCC3,0.3
26,CCOC(=O)CCCN(c1[nH]c(C)c(C)c1C#N)S(=O)(=O)c1ccc(C)cc1,1.05

# Reformatted: 2 of the compounds above
row	SMILES	T2 sensor activation Q score
22	Cc1cccn2c(=S)[nH]nc12	-1.35
23	COc1ccc(CC(=O)c2ccc(O)cc2O)cc1	0.35

# Next part

row,SMILES,T2 sensor activation Q score
1,OC(COc1ccc(Cl)cc1)CN1CCN(c2cccc(Cl)c2)CC1 (configuration not stated),1.05
2,CCCCOc1ccc(OC(=O)Nc2cc(Cl)ccc2OC)cc1,-0.4
3,Oc1ccc(Cc2ccc(Cl)cc2)c(O)c1,1.3
4,CCOC(=O)/C(=N\O)C1=CSC2=NNC(C)(C)N12,-1.5
5,O=c1[nH]c2nc(Cl)nc(Cl)c2[nH]1,1
6,C(=C\CSc1ccccn1)/CSc1ccccn1,-0.6
7,Cc1cc(NC(=O)OC(C)C)ccc1-c1ccc(NC(=O)OC(C)C)cc1C,-0.25
8,CN(C(=O)c1ccncc1)c1ccccc1,-1
9,O=C(Nc1ccc(Cl)c([N+](=O)[O-])c1)Nc1nc2ccccc2s1,-1.2
10,S=P(N1CC1)(N1CC1)N1CC1,-1.35
11,CC(C)c1ccc(-c2nc3ccccc3s2)cc1,-1.15
12,CN(C)c1nc(Cl)nc2c1nc(Cl)n2C1CCCCO1 (configuration not stated),1.4
13,O=C(O)CSc1nc2ccccc2s1,0.3
14,Nn1c(Cc2ccccc2)nnc1Cc1ccccc1,0.2
15,CCOC(=O)c1cc(OCC)c2c(ccc3ccccc32)n1,0.85
16,O=Nc1c(-c2cccc([N+](=O)[O-])c2)nc2ncccn12,1.6
17,Cc1ccc([N+](=O)[O-])cc1NC(=O)Nc1cccc(F)c1,-0.7
18,O=C(c1ccc(OCCN2CCCCC2)cc1)c1c(-c2ccc(O)cc2)sc2cc(O)ccc12,-1.5
19,NC(CSC1(c2cccc3ccccc23)c2ccccc2-c2ccccc21)C(=O)O (configuration not stated),0.15
20,CNC(=O)c1ccccc1Sc1ccc2c(/C=C/c3ccccn3)n[nH]c2c1,-0.65
21,CS/C(=N\S(=O)(=O)c1ccccc1)NNC(=O)c1c(-c2c(Cl)cccc2Cl)noc1C,1.1
22,S=c1[nH]cc2cnccn12,-0.95
23,CSc1nc2cc(S(=O)(=O)N3CCCCC3)ccc2s1,-0.1
24,ClCC(CNCc1ccccc1)c1ccccc1 (configuration not stated),1.6
25,O=C(O)c1ccccc1-n1c2ccccc2c2ccccc21,1.1
26,Cn1nc(SCc2ccccc2)c(=O)n(C(c2ccccc2)c2ccccc2)c1=O,-0.75

# Laid out differently: entries from further up
row	SMILES	T2 sensor activation Q score
13	CCOC(=O)c1nn(-c2ccccc2)cc1O	0.9
14	Nc1nc(Cl)cc(Nc2ccccc2Cl)n1	0.6
15	CC1=NC(C)(C)CC2CCC(O)C12 (configuration not stated)	-0.5
16	CCC(C)n1c(C)cc(=O)n1C(C)CC (configuration not stated)	-0.1
17	O=c1nc(Oc2ccccc2)nc2ncccn12	1.9
18	c1ccn(CCc2ccncc2)c1	1.4
19	CCSc1nc(C)c(C)c(=O)[nH]1	-0.5
20	CN(C)c1ccc(/C=C/C(=O)c2cc(Cl)ccc2O)cc1	-0.3
21	NC1(N2SC(S)=C3CCCC=C32)CCCCC1	-1.7
22	Cc1cccn2c(=S)[nH]nc12	-1.35
23	COc1ccc(CC(=O)c2ccc(O)cc2O)cc1	0.35
24	O=C(O)c1ccc2c(c1Sc1ccccc1)C(=O)c1ccccc1C2=O	0.2
25	CCOC(=O)c1nc2sc3c(c2c(=O)[nH]1)CCCC3	0.3
26	CCOC(=O)CCCN(c1[nH]c(C)c(C)c1C#N)S(=O)(=O)c1ccc(C)cc1	1.05
1	OC(COc1ccc(Cl)cc1)CN1CCN(c2cccc(Cl)c2)CC1 (configuration not stated)	1.05
2	CCCCOc1ccc(OC(=O)Nc2cc(Cl)ccc2OC)cc1	-0.4
3	Oc1ccc(Cc2ccc(Cl)cc2)c(O)c1	1.3
4	CCOC(=O)/C(=N\O)C1=CSC2=NNC(C)(C)N12	-1.5
5	O=c1[nH]c2nc(Cl)nc(Cl)c2[nH]1	1
6	C(=C\CSc1ccccn1)/CSc1ccccn1	-0.6
7	Cc1cc(NC(=O)OC(C)C)ccc1-c1ccc(NC(=O)OC(C)C)cc1C	-0.25
8	CN(C(=O)c1ccncc1)c1ccccc1	-1
9	O=C(Nc1ccc(Cl)c([N+](=O)[O-])c1)Nc1nc2ccccc2s1	-1.2

# Remaining list, next part.

row,SMILES,T2 sensor activation Q score
1,NC(=O)c1cc(C(N)=O)nc(Cl)n1,0
2,O=C(c1ccccc1)C1C(c2ccccc2)C1[N+](=O)[O-] (configuration not stated),1.05
3,Cc1ccc(N2CCN(CC(O)COc3cccc(C)c3)CC2)cc1 (configuration not stated),-0.85
4,NS(=O)(=O)c1cc2c(cc1Cl)NC(Cc1ccccc1)NS2(=O)=O (configuration not stated),0.15
5,CNC1(C(N)=O)CCNCC1,-0.65
6,O=[N+]([O-])c1cc2cccnc2c2ncccc12,0.4
7,O=C1CSC(c2cccs2)N1c1nncs1 (configuration not stated),1.1
8,S=c1nc[nH]c2nc[nH]c12,-0.4
9,CCCn1cnc2c(Sc3c([N+](=O)[O-])ncn3C)nc(N)nc21,-0.2
10,CN(/N=N/c1nc[nH]c1C(=O)NN)C1CCCCC1,1.7
11,CCOC(=O)c1cc(-c2ccccc2)nc2ccc(C)cc12,0.9
12,CCOc1nsc(OCC)n1,-0.8
13,CC(=O)Oc1ccc(OC(C)=O)c2c1CC(C)=C(C)C2,0.85
14,COc1cccc(OCC(O)CN2CCN(c3ccc(Cl)cc3)CC2)c1 (configuration not stated),0.1
15,S=C(SCc1cc(Cl)cc2c1OCOC2)N1CCSCC1,-0.05
16,C=CCN1CCN(c2ccncc2S(=O)(=O)N2CCN(C)CC2)CC1,0.15
17,CCOC(=O)C(C)c1c(C(=O)c2ccc(C)nc2)c2ccccc2n1C (configuration not stated),0.9
18,O=c1cc(-c2ccccc2)oc2ccc(O)cc12,-0.15
19,O=C1CCCc2cc3c(cc21)CC1(C3)Cc2cc3c(cc2C1)C(=O)CCC3,-1
20,S=c1[nH]c2ccc(Cl)cc2s1,0.3
21,OC(COc1cccc2ccccc12)CN1CCN(c2ccccc2Cl)CC1 (configuration not stated),-0.1
22,O=c1[nH]c2c(cnn2-c2ccc(Cl)cc2)c(=O)n1-c1cccc(Cl)c1,1.25
23,CCN(CC)CCN=c1c(C)nc(C#N)c(N)n1O,0.9
